Test results: patent US6716428B1 (The Ohio State University Research Foundation, priority 1999, dated 2004)

Experiment: peptide synthesis
Settings: purification step, recovery from crude fraction, one disulfide bridge, sequence written open

Ala-(Pro)6-(38-57) showed a step yield of 8.5%.
